These are yes or no findings as the source states them, for the method shown. Some entries that bind do so weakly or less than the wild type.
Key:
[1] = target: human properdin (human) (UniProt P27918); experiment: saturation ELISA, biotinylated antibody on properdin-coated plate
[2] = target: human properdin (human) (UniProt P27918); experiment: saturation ELISA (FIG. 30)
[3] = target: human properdin (human) (UniProt P27918); experiment: ELISA on properdin-coated plate
[4] = target: human properdin (human) (UniProt P27918); experiment: ELISA on properdin-coated plate (FIG. 2)
[5] = target: human properdin (human) (UniProt P27918); experiment: ELISA on properdin-coated plate, anti-mouse peroxidase detection
[6] = target: human properdin (human) (UniProt P27918); experiment: properdin binding (FIG. 18)

Chains of the proteins cited; added tags and fusions are not shown. Residues count along the entry.
UniProt P27918, residues 28-469: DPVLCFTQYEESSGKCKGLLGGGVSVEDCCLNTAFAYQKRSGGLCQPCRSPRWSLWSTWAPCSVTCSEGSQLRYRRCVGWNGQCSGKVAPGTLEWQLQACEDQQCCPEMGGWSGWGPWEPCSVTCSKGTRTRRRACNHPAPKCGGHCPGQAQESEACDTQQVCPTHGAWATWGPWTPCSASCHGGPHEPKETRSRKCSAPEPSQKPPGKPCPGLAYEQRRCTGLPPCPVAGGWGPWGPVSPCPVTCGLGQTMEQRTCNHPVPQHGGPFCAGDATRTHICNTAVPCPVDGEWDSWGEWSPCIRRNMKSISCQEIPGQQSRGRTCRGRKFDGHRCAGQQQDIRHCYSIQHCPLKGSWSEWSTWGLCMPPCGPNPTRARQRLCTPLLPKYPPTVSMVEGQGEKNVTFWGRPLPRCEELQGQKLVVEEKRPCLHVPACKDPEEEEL

Measured: binding

B1: NM9401-IgG (murine anti-properdin monoclonal antibody, IgG1) (antibody, V domains shown)
VH: QVQLQQSAPELARPGASVKMSCTASGYIFTNYPIHWVKQRPGQGLEWIGFIDPGGGYDEPDERFRDRATLTADKSSSTAYMQLSSLTSEDSAIYYCARRGGGYYLDYWGQGTTLTVSS
VL: DIQMTQTTSSLSASLGDRVTISCRASQDISFFLNWYQQKPDGTVKLLIYYTSRYHSGVPSRFSGSGSGTDFSLTINNLEQEDFATYFCQHGNTLPWTFGGGTKLEIKR
binds: [1] | [2] | [3] | [4] | [5] | [6]

B2: NM9401-F(ab′)2 (protein)
VH: QVQLQQSAPELARPGASVKMSCTASGYIFTNYPIHWVKQRPGQGLEWIGFIDPGGGYDEPDERFRDRATLTADKSSSTAYMQLSSLTSEDSAIYYCARRGGGYYLDYWGQGTTLTVSSAKTT
VL: DIQMTQTTSSLSASLGDRVTISCRASQDISFFLNWYQQKPDGTVKLLIYYTSRYHSGVPSRFSGSGSGTDFSLTINNLEQEDFATYFCQHGNTLPWTFGGGTKLEIKRADAAPTVSIFPPSSEQLTSGGASVVCFLNN
binds: [3] | [4] | [5]

B3: NM9401-Fab (Fab, V domains shown)
VH: B1 VH
VL: B1 VL
binds: [4] | [5]
